“Also recorded” adds a separate entry of the source. At least one compound was matched to its structure with a doubt left.
How the values were obtained:
[1] = target: T1, Falcilysin (FLN, PlasmoDB geneID: PF3D7_1360800) (Plasmodium falciparum, UniProt Q76NL8); assay: CETSA screen in ring stage and stage III-V gametocytes; type: binding, P. falciparum; parameters: endogenous in cells; host or cells: P. falciparum 3D7 ring stage (lysate); NF54 iGP2 stage III-V gametocytes (intact cells); conditions: asexual ring stage and stage III-V gametocytes
[2] = tested on: P. falciparum 0-3hpi ring stage parasites; assay: asexual blood stage-specificity assay; type: cell-based, Plasmodium falciparum; conditions: 10 μM, treated at 36 hr post invasion
[3] = tested on: Zinc Finger (CCCH-type) protein (PF3D7_1315400); assay: CETSA (ITDR MS screen and western blot validation); type: binding, P. falciparum 3D7
[4] = target: T1, Falcilysin (FLN, PlasmoDB geneID: PF3D7_1360800); assay: cell-free enzymatic inhibition assay with recombinant FLN and fluorescent-quencher peptide substrate; type: biochemical; parameters: gift from Zbynek Bozdech, School of Biological Sciences, NTU; conditions: 10 μM, fluorescence at 490 nm over 7 min
Experimental: In order to validate the results obtained from the CETSA screen, a cell-free enzymatic inhibition assay using recombinant-FLN and a fluorescent-quencher tagged 10-peptide substrate of FLN was employed. Recombinant FLN and the Dabcyl-[…] (SEQ ID NO:3)-Edans fluorescent-quencher peptides were a gift from Zbynek Bozdech of School of Biological Sciences, NTU. Briefly, recombinant FLN at a final concentration of 0.3 μg/ml in assay buffer (50 mM Bis-tris, pH 7.2) was prepared. […] Just prior to the read out, recombinant FLN in assay buffer was added. VO was determined by monitoring fluorescence (Aex=340 nm, Aem=490) over 7 min on a Tecan Infinite M200 Pro plate reader. Assays were done with two technical replicates each. Data of three biological replicates were averaged and plot on Microsoft excel to compare the slope of the fluorescence signal.

By UniProt entry, the sequences of proteins in these tests, tags left out. Where a name states a change or a piece, a line headed by the entry shows the natural chain unless it says otherwise.
UniProt Q76NL8: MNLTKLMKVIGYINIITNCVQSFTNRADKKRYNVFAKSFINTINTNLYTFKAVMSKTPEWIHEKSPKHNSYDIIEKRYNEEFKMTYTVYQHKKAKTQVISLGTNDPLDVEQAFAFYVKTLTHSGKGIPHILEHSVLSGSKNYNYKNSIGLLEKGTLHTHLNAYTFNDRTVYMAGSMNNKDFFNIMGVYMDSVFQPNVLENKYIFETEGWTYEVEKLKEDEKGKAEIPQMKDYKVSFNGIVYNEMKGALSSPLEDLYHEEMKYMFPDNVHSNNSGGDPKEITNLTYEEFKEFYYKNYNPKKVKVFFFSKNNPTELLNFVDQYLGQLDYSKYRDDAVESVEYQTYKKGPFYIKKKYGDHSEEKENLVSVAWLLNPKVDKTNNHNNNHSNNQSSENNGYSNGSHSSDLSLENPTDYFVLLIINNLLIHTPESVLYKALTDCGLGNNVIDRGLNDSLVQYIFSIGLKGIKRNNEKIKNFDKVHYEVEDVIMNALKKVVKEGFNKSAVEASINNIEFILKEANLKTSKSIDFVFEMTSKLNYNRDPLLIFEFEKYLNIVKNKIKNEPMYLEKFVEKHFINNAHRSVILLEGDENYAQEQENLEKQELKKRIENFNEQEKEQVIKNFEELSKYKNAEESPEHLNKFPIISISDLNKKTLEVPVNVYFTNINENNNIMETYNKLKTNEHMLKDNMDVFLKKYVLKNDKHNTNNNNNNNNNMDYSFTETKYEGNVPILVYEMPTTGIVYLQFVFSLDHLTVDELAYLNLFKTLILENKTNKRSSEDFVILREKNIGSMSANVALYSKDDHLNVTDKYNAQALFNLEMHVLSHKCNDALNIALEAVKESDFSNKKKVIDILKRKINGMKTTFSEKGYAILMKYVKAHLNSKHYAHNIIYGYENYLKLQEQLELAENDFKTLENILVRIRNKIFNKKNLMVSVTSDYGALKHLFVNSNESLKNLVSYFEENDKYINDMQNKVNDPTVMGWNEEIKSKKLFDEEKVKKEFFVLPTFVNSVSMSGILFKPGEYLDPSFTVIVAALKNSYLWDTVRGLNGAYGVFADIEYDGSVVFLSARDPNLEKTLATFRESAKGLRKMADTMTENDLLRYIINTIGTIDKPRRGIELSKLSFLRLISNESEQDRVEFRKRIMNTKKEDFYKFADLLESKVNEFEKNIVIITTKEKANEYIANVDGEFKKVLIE

C1=NC(c2ccccc2)C(c2ccccc2)N1Cc1cccc(CN2C=NC(c3ccccc3)C2c2ccccc2)c1 (centres unmarked) [A1, 1-({m-[(4,5-Diphenyl-1-imidazolinyl)methyl]phenyl}methyl)-4,5-diphenylimidazoline]
protein hits from CETSA screens [1]: a single protein was identified with confidence between both stages; Falcilysin | effect on parasites [2]: did not seem to exert any effect | thermal stabilization of Zinc Finger protein, western blot CETSA ([3]; 100 μM, 30hpi lysates of HA-tagged cell line): putative target | protein hits from ITDR CETSA screen ([3]; 5 protein hits): four were ribosomal proteins and another a zinc-finger protein (PF3D7_1315400) | proteolytic activity of FLN [4]: able to inhibit the proteolytic activity of FLN; also recorded: abolished
